Measured values as given in PubChem BioAssay AID2685 (National Center for Advancing Translational Sciences (NCATS), 2010).
The list shows a part of the results. Shown are side measurements of this screen, not its main read-out; they come without a call. Most of these compounds were active or inconclusive in the main read-out, so they are no random draw. The note in brackets gives the kind of curve behind each potency; many fits are weak.

Assay: qHTS Assay for Lipid Storage Modulators in Drosophila S3 Cells;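 for cell number change: cells counted by Cell Tracker Red CMTPX staining in the red channel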
Conditions: BODIPY lipid droplet fluorescence, 18-24 h; for cell number change: measured here: cell count max response, cells fed with added oleic acid
In short: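 Laser-scanning cytometry quantifies lipid droplet accumulation (500–530 nm total intensity; droplet/cell object ratio) in oleic acid-fed (400 uM added) Drosophila S3 cells treated with a concentration series. 20 uM Triacsin C defined 100% inhibition.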

[1] = measured here: lipid fluorescence (Fed channel) AC50, cells fed with added oleic acid
[2] = measured here: cell number channel AC50, cells fed with added oleic acid

Q: Which results are given for `Cc1ccccc1OCc1nc2ccccc2[nH]1`?
A: cell number change: 8.67%; AC50 [1]: 23.1 µM [rising, single point]

Q: Which cell number change does the source give for `Cc1ccc(/C=C(\NC(=O)c2ccccc2)C(=O)NCCc2ccccn2)o1` here?
A: 0.57%

Q: And the AC50 [1]?
A: 0.116 µM [falling, full curve, poor fit]

Q: What does the source list for `CCCOc1ccc(C2C(C(=O)c3ccc(C)o3)=C(O)C(=O)N2Cc2ccco2)cc1OCC` (stereo not drawn)?
A: cell number change: 4.95%; AC50 [1]: 29.1 µM [rising, single point]

Q: Which results are given for `COc1ccccc1/C=C/C(=O)NCC(=O)N=Nc1c(O)[nH]c2ccccc12`?
A: AC50 [2]: 4.11 µM [falling, partial curve, poor fit]; AC50 [1]: 5.8 µM [falling, full curve]

Q: Which cell number change does the source give for `CC(=O)c1c(C)[nH]c(C(=O)OCC(=O)c2ccc(C)s2)c1C` here?
A: -7.8%

Q: What about the AC50 [1] of the same compound?
A: 0.00411 µM [falling, full curve, poor fit]

Q: For `O=C(CN1C(=O)c2ccc([N+](=O)[O-])cc2C1=O)NC1CCS(=O)(=O)C1` (stereo not drawn), which cell number change is on record?
A: -3.74%

Q: What about the AC50 [1] of the same compound?
A: 3.66 µM [rising, partial curve]

Q: For `CCOc1ccc(S(=O)(=O)NCCC(=O)NCCCSc2ccccc2)cc1`, which AC50 [2] is on record?
A: 0.461 µM [rising, full curve]

Q: What about the AC50 [1] of the same compound?
A: 0.651 µM [rising, partial curve, poor fit]

Q: What does the source list for `CC(C)C(=O)Nc1cccc(NC(=O)CCN2C(=O)c3ccccc3S2(=O)=O)c1`?
A: cell number change: -36.9%; AC50 [2]: 2.59 µM [falling, full curve]; AC50 [1]: 8.2 µM [falling, partial curve]

Q: For `C=CC[n+]1c(C)csc1Nc1ccc(C)cc1`, which AC50 [2] is on record?
A: 6.51 µM [rising, single point]

Q: With `c1ccc2c(CNCCN3CCOCC3)cccc2c1` as the compound, how does the cell number change read?
A: -7.48%

Q: What about the AC50 [1] of the same compound?
A: 29.1 µM [falling, single point]

Q: For `CCOc1cc(CNCCO)cc(Br)c1OCc1ccc(Cl)cc1Cl`, which cell number change is on record?
A: -21.8%

Q: With `COc1ccc(S(=O)(=O)N2Cc3ccccc3CC2C(=O)Nc2ccc3c(c2)OCO3)cc1` (stereo not drawn) as the compound, how does the cell number change read?
A: 4.8%

Q: What about the AC50 [1] of the same compound?
A: 1.16 µM [rising, single point]

Q: What does the source list for `Cc1ccc(NC(=O)Cn2nc(C(=O)O)c3ccccc3c2=O)c([N+](=O)[O-])c1`?
A: cell number change: -16.2%; AC50 [1]: 6.51 µM [rising, single point]

Q: Which cell number change does the source give for `Cc1ccc(-n2cnc3ncnc(-c4ccccc4)c32)cc1` here?
A: -8.31%

Q: And the AC50 [2]?
A: 0.146 µM [falling, full curve, poor fit]

Q: What about the AC50 [1] of the same compound?
A: 29.1 µM [falling, single point]

Q: For `Cc1nc(CCNC(=O)C2CCC(=O)N(CCc3cccc(F)c3)C2)sc1C` (stereo not drawn), which cell number change is on record?
A: -13.6%

Q: With `CC(=O)Nc1ccc(S(=O)(=O)N2CCN(c3cc(C)nc4ccccc34)CC2)cc1` as the compound, how does the cell number change read?
A: 67.6%

Q: And the AC50 [2]?
A: 2.06 µM [rising, partial curve]

Q: And the AC50 [1]?
A: 2.06 µM [rising, partial curve]

Q: Which cell number change does the source give for `CCCCCCCNC(=O)C1CC(=O)N(C)C(=Nc2ccc(OC)cc2)S1` (stereo not drawn) here?
A: 16.6%

Q: And the AC50 [1]?
A: 2.31 µM [rising, full curve]

Q: Which cell number change does the source give for `CCCCn1nnc(NC(=O)c2ccc(-c3cccc([N+](=O)[O-])c3)o2)n1` here?
A: -3.82%

Q: What about the AC50 [2] of the same compound?
A: 0.731 µM [rising, partial curve, poor fit]

Q: What about the AC50 [1] of the same compound?
A: 0.82 µM [rising, single point]

Q: For `CC1=C(C(=O)OC2CCCCC2)C(c2ccccc2F)NC(=O)N1` (stereo not drawn), which cell number change is on record?
A: 22.5%

Q: What about the AC50 [1] of the same compound?
A: 29.1 µM [rising, single point]

Q: What does the source list for `Cn1cc(S(=O)(=O)CC(=O)Nc2ccc(Br)cc2)c2ccccc21`?
A: cell number change: 17.7%; AC50 [1]: 29.1 µM [rising, single point]

Q: Which cell number change does the source give for `CCn1c(=O)cc(N2CCC3(CC2)OCCO3)[nH]c1=O` here?
A: -27.1%

Q: What about the AC50 [1] of the same compound?
A: 20.6 µM [falling, single point]

Q: For `O=C(CN1CCS(=O)(=O)CC1)N/N=C/c1cccc(C(F)(F)F)c1`, which cell number change is on record?
A: 27.8%

Q: What about the AC50 [1] of the same compound?
A: 35.5 µM [rising, single point]

Q: For `Cc1ccc2nc(NC(=O)CSc3nc(=O)n(CCN(C)C)c4c3CCCC4)sc2c1`, which cell number change is on record?
A: -3.1%

Q: With `O=C(CSc1ncnc2sc(-c3ccccc3)cc12)NC1CCS(=O)(=O)C1` (stereo not drawn) as the compound, how does the cell number change read?
A: -26.4%

Q: What does the source list for `CCNC(=S)NNC(=O)c1ccoc1C`?
A: cell number change: 4.63%; AC50 [1]: 0.411 µM [falling, single point]

Q: For `COc1cccc(CNC(=O)C(=O)NCC2CCCN2S(=O)(=O)c2cc(C)ccc2C)c1` (stereo not drawn), which AC50 [2] is on record?
A: 6.51 µM [rising, single point]

Q: What does the source list for `CC12CN3CC(C)(CN(C1)C3c1ccc(Br)cc1)C2` (stereo not drawn)?
A: cell number change: -16.4%; AC50 [2]: 1.16 µM [falling, partial curve]; AC50 [1]: 0.92 µM [falling, full curve]

Q: For `O=C(CCc1nnc(-c2ccc(-c3ccccc3)cc2)o1)N1CCCCC1`, which cell number change is on record?
A: -21.6%

Q: Which cell number change does the source give for `COC(=O)N/N=C(\CCC(=O)O)c1cccs1` here?
A: -6.62%

Q: For `CCn1nc(C(=O)NNC(=O)COc2ccccc2C)c2ccccc2c1=O`, which cell number change is on record?
A: -7.69%

Q: What about the AC50 [1] of the same compound?
A: 10.3 µM [rising, partial curve]

Q: With `Cn1c(/C(C#N)=C(\O)c2ccc(S(=O)(=O)N3CCCCC3)cc2)nc2ccccc21` as the compound, how does the cell number change read?
A: 7.58%

Q: Which cell number change does the source give for `COC(=O)[C@@]12CCCN1[C@H](c1ccc(-c3ccc(C(C)=O)cc3)c(OC)c1)[C@H]1C(=O)N(C)C(=O)[C@H]12` here?
A: -22.8%

Q: And the AC50 [1]?
A: 0.164 µM [rising, full curve, poor fit]

Q: Which cell number change does the source give for `Cn1ccnc1Sc1nnnn1-c1ccccc1` here?
A: -14.9%

Q: What about the AC50 [2] of the same compound?
A: 2.06 µM [falling, partial curve, poor fit]

Q: What about the AC50 [1] of the same compound?
A: 0.82 µM [falling, full curve, poor fit]

Q: With `O=C(CSc1ccc(Cl)cc1)N1N=CCC1c1ccccc1` (stereo not drawn) as the compound, how does the AC50 [1] read?
A: 29.1 µM [falling, single point]

Q: With `COc1ccc(C(=O)N/N=C2\SCC(=O)N2Cc2ccc3c(c2)OCO3)c(OC)c1` as the compound, how does the cell number change read?
A: -66.4%

Q: And the AC50 [2]?
A: 29.1 µM [falling, single point]

Q: What about the AC50 [1] of the same compound?
A: 29.1 µM [falling, single point]

Q: Which results are given for `COc1ccc(NS(=O)(=O)c2cccc(NC(=O)COc3ccc(OC)cc3)c2)cc1`?
A: cell number change: -18.7%; AC50 [1]: 29.1 µM [falling, single point]

Q: With `CCc1sc(C(=O)NC)cc1Br` as the compound, how does the cell number change read?
A: -0.27%

Q: What about the AC50 [1] of the same compound?
A: 0.291 µM [falling, partial curve, poor fit]

Q: For `CC(CCc1ccccc1)NC(=O)CCNS(=O)(=O)c1ccccc1C(F)(F)F` (stereo not drawn), which cell number change is on record?
A: 3.3%

Q: What about the AC50 [1] of the same compound?
A: 20.6 µM [rising, partial curve, poor fit]
